Consider one molecule from PMC13280575.

Sequences of proteins named here, by UniProt entry; tags and fusion partners are left off. A change or cut given only in a name is not applied to a line headed by its entry.
UniProt P14859: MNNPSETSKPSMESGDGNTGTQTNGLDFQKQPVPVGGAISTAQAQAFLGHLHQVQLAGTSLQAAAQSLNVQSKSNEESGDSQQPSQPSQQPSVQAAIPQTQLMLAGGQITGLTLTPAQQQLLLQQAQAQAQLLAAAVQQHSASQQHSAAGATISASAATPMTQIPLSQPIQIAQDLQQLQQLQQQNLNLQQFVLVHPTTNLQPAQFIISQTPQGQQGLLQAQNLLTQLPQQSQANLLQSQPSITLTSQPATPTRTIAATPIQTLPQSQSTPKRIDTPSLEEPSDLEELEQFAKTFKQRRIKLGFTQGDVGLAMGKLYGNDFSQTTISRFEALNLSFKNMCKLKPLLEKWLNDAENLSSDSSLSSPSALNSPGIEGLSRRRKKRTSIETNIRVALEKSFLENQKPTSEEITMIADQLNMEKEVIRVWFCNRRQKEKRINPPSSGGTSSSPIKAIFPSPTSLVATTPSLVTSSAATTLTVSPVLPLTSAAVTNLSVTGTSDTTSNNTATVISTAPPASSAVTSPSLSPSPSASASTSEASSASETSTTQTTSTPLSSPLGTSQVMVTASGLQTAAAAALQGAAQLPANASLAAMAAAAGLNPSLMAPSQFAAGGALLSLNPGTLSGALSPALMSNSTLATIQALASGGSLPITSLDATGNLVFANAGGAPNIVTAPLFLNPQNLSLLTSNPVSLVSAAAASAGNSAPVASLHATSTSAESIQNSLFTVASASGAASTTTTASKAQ

For this experiment, the target named is FLAG-POU domain of POU2F1(OCT-1), in vitro translated (human) (UniProt P14859). As to the kind of experiment: pull-down; in vitro translated FLAG-POU on anti-FLAG M2 agarose beads, alone or first with in vitro translated (myc)6-BRCA1 fragment (1 h, 4 °C), then [35S]-labelled (myc)6-PER2 (2 h); autoradiography.

These are yes or no findings as the source states them, for the method shown. Binding seen in cells or lysates may run through a third protein. A result given as binding can be weak or reduced; the word gives no strength. Tags and fused reporters may be left off the sequences shown.

B1: (myc)6-BRCA1 (1670–1863), in vitro translated (domain or fragment, UniProt P38398 1670-1863)
chain: RKHHITLTNLITEETTHVVMKTDAEFVCERTLKYFLGIAGGKWVVSYFWVTQSIKERKMLNEHDFEVRGDVVNGRNHQGPKRARESQDRKIFRGLEICCYGPFTNMPTDQLEWMVQLCGASVVKELSSFTLGTGVHPIVVVQPDAWTEDNGFHAIGQMCEAPVVTREWVLDSVALYQCQELDTYLIPQIPHSHY
modifications: [35S]-methionine label
For B1, the binding entry was “binds”.
